Reference: PMC7862700
This is a selection; strong and weak results do not stand in their true shares. At the low end of the ranking the order means little.

Chains of the proteins cited; added tags and fusions are not shown. Lines headed by an entry give the natural chain unless they say otherwise; changes in a name come on top.
UniProt Q9Y603: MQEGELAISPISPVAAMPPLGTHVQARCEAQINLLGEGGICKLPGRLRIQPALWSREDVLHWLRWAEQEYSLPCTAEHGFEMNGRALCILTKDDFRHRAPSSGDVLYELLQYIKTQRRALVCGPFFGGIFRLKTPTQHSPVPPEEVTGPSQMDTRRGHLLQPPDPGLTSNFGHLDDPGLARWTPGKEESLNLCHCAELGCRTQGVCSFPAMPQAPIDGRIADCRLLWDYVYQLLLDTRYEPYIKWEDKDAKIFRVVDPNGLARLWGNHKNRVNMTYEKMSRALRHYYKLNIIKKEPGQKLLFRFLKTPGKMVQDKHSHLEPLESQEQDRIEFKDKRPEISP

Molecular target: ETV7 (UniProt Q9Y603)
Assay: DAPPL (digital affinity profiling via proximity ligation, sequencing)
Conditions: 10 mM Tris-HCl pH 7.5, 50 mM NaCl, 1 mM DTT, 4% glycerol, room temperature, 30 min; GST-TFs on glutathione beads, 16-mer random dsDNA library, 0.1% …; high values mean tight binding; double strand, one strand shown; scale: fold enrichment (6-mer frequency, TF over GST control)

With CTGCCG as the sequence, how does the binding signal read?
The binding signal was 1.39.

GCGTTC was tested. Which binding signal did it give?
Its binding signal is 1.23.

How did the binding signal turn out when GCTCTG was run?
Its binding signal is 1.17.

Which binding signal does the source give for AATAAG here?
Its binding signal is 1.19.

Which binding signal does the source give for GCTTTC here?
The binding signal was 1.31.

How did the binding signal turn out when GTCTTA was run?
The binding signal was 1.21.

How did the binding signal turn out when CCACGC was run?
The binding signal was 1.15.

For TCCCAC, which binding signal is on record?
The binding signal was 1.41.

Which binding signal does the source give for TGCCCG here?
Its binding signal is 1.34.

With CTCTGG as the sequence, how does the binding signal read?
The binding signal was 1.33.

How did the binding signal turn out when AGGCTC was run?
Its binding signal is 1.04.

With CTTCTG as the sequence, how does the binding signal read?
Its binding signal is 1.2.

With TCCTTG as the sequence, how does the binding signal read?
The binding signal was 1.22.

With GATACG as the sequence, how does the binding signal read?
Its binding signal is 0.99.

With TTTACG as the sequence, how does the binding signal read?
Its binding signal is 1.25.

How did the binding signal turn out when TTTGCT was run?
The binding signal was 1.38.

CGACCG was tested. Which binding signal did it give?
Its binding signal is 1.13.

Which binding signal does the source give for TACTAC here?
The binding signal was 1.47.

Which binding signal does the source give for CTCGAT here?
The binding signal was 1.31.

Which binding signal does the source give for GAAATC here?
Its binding signal is 1.46.

For TAACCC, which binding signal is on record?
The binding signal was 1.31.

With ATACTA as the sequence, how does the binding signal read?
The binding signal was 1.14.

For TATAAC, which binding signal is on record?
The binding signal was 1.26.

With CGACTT as the sequence, how does the binding signal read?
Its binding signal is 1.53.

With AACAAT as the sequence, how does the binding signal read?
Its binding signal is 1.24.

How did the binding signal turn out when CTGGGT was run?
Its binding signal is 1.1.

For ATCACT, which binding signal is on record?
Its binding signal is 1.26.

Which binding signal does the source give for TGCAAA here?
The binding signal was 1.09.

For AGCCTC, which binding signal is on record?
Its binding signal is 1.31.

TTCCTC was tested. Which binding signal did it give?
Its binding signal is 1.96.

For CCTCTC, which binding signal is on record?
Its binding signal is 1.44.

CGGCTC was tested. Which binding signal did it give?
Its binding signal is 1.25.

For CTTTTC, which binding signal is on record?
Its binding signal is 1.49.

How did the binding signal turn out when GTAAAA was run?
Its binding signal is 1.18.

With ACCCTA as the sequence, how does the binding signal read?
Its binding signal is 1.27.

Which binding signal does the source give for CCTCGT here?
The binding signal was 1.17.

For TGGTCT, which binding signal is on record?
The binding signal was 1.28.

Which binding signal does the source give for CACGAA here?
Its binding signal is 1.16.
